The exact form of at least one protein or probe is not confirmed. Results from cells or extracts need not show a direct contact. No signal at the amounts used counts as a negative. For part of these data: At least one verdict rests on a figure or table, not on a statement of the authors. For part of these data: Protein sequences can lack the tags named with them.
Experiments:
[1] = target: Oct4 (Mus musculus (ZHBTc4 ES cells)) (UniProt P20263); assay: EMSA; conditions: Z- extract, 40 ug whole ES cell extract, 32P ds oligonucleotide, native 4% polyacrylamide gel, pH and temperature not stated (refers to Rallu 1997), protein in an extract, label: 32P
[2] = target: T1, Nanog (Mus musculus (RCNβH ES cells)) (UniProt Q80Z64); assay: EMSA; conditions: R- extract, also no shift with R+ extract; 40 ug whole ES cell extract, 32P ds oligonucleotide, native 4% polyacrylamide gel; pH and temperature not stated (refers to Rallu 1997); protein in an extract; label: 32P
T1 sequence (looked up, limits assumed): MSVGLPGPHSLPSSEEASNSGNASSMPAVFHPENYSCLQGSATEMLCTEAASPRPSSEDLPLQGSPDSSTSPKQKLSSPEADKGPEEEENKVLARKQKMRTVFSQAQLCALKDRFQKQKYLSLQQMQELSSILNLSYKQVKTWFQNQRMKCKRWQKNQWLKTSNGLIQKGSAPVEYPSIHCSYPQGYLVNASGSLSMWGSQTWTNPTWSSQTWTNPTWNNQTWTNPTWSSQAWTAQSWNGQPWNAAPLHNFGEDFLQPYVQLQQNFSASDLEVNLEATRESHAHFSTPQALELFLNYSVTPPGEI

Protein sequences, listed by entry. Tags and fused reporters are not part of them.
UniProt P20263, whole entry: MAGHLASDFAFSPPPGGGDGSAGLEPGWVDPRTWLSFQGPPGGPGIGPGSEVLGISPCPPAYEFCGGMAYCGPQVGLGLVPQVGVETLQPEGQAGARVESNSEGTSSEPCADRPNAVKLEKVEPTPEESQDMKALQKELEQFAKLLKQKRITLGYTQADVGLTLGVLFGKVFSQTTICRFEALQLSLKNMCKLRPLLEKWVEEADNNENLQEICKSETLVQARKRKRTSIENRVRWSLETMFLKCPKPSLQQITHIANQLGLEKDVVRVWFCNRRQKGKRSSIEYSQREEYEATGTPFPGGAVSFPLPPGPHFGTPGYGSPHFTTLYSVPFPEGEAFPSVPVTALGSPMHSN

“TGGGGGCGGACTTTGGGACAGGAATTTAGCGTTCTTTAAAGGTAATTTCT (double strand) [Oct4 MUT]”: no binding [1].

“TGGGGGCGGACTTTGGGACAGGAATTTACATTTCTTTAAAGGTAATTTCT (double strand) [Oct4 WT]”: binds ([1]; no shift with Oct4-depleted Z+ extract, Oct4 antibody destabilizes complex).

“TAGGACCCAGGGGCTGTAGGCCTCTGGGGA (double strand) [Nanog MUT]”: no binding [2].

Reference: paper PMC4068991
